Patent publication US20090269356
For at least one entry, the source does not settle the construct or the ends of the probe. For part of these data: A negative result means that nothing was seen under these conditions. For part of these data: The comparison behind a weaker result is the experiment's own reference, which may not be listed here. For part of these data: Where cells or extracts were used, other partners may take part.

Chains of the proteins cited; added tags and fusions are not shown. Chains listed by the source or under a name are the forms on record and can include a tag or linker.
UniProt P01031, whole entry: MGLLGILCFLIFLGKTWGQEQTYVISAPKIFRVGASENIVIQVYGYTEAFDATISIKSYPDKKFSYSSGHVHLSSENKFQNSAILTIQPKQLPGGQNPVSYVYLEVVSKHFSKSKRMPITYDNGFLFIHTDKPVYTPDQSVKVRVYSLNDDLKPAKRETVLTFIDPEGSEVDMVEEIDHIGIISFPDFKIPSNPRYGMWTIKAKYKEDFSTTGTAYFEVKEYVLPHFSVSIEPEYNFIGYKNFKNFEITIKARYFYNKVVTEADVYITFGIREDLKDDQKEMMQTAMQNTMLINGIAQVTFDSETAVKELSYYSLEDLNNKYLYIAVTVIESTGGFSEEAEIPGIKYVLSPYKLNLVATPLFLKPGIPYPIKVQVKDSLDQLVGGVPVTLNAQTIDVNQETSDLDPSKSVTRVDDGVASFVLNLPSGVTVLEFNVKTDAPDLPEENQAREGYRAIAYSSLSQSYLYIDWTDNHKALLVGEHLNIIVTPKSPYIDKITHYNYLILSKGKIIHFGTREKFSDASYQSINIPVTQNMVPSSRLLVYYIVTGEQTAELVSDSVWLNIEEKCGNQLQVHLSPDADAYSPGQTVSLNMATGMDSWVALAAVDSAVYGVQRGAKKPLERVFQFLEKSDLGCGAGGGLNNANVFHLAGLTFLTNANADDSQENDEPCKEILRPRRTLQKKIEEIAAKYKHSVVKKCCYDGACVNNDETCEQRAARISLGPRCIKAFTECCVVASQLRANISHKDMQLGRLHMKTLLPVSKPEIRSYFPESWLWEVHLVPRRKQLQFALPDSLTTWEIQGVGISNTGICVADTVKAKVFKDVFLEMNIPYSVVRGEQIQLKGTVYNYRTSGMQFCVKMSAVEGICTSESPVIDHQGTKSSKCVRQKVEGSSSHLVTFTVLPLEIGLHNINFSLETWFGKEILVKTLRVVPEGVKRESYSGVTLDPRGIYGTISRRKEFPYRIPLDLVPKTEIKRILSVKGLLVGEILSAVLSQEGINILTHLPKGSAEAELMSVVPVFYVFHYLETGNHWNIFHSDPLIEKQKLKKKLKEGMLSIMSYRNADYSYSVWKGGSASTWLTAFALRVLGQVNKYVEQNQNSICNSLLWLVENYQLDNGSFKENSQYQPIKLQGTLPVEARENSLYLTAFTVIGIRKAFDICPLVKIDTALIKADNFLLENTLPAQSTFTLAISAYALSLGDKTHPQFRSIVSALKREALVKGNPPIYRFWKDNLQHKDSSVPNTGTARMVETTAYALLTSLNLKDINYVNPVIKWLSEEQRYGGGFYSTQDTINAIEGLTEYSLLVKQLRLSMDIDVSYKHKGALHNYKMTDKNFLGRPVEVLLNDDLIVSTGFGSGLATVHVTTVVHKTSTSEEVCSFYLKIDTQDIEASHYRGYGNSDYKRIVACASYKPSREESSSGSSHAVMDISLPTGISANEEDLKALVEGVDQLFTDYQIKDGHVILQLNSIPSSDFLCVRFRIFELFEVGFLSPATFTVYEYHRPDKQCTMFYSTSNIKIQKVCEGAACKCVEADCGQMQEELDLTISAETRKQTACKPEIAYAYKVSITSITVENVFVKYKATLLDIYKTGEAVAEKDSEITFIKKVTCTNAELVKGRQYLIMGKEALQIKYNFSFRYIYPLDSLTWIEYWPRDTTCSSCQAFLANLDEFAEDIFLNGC
complement C5 in rat serum (Rattus norvegicus), one chain, as listed by the source, chain 2 of 2: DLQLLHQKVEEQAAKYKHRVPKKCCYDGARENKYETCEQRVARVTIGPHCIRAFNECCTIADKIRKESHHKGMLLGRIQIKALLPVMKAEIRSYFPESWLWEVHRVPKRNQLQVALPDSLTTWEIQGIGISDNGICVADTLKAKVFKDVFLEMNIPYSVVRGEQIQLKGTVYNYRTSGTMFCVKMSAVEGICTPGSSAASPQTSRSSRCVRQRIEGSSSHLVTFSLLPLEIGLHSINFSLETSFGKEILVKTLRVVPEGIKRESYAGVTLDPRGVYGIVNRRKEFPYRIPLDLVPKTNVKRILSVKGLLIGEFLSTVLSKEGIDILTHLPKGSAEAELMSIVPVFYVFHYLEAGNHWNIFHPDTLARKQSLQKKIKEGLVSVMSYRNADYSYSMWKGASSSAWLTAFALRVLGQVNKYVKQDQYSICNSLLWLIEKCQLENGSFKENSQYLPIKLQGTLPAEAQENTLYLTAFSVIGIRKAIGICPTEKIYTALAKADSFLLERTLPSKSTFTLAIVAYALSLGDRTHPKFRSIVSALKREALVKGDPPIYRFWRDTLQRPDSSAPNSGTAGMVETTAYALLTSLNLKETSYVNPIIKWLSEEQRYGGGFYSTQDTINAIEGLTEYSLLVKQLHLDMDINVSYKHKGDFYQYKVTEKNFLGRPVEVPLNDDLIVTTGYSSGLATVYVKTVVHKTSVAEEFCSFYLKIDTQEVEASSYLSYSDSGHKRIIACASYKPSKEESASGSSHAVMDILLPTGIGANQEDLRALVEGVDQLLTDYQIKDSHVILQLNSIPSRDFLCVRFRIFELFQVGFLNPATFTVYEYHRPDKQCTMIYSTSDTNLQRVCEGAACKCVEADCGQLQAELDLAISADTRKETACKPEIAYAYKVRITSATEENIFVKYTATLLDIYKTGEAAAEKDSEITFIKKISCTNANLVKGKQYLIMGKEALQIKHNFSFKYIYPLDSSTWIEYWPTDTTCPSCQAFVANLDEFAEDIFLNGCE
complement C5 in rat serum (Rattus norvegicus), one chain, as listed by the source, chain 1 of 2: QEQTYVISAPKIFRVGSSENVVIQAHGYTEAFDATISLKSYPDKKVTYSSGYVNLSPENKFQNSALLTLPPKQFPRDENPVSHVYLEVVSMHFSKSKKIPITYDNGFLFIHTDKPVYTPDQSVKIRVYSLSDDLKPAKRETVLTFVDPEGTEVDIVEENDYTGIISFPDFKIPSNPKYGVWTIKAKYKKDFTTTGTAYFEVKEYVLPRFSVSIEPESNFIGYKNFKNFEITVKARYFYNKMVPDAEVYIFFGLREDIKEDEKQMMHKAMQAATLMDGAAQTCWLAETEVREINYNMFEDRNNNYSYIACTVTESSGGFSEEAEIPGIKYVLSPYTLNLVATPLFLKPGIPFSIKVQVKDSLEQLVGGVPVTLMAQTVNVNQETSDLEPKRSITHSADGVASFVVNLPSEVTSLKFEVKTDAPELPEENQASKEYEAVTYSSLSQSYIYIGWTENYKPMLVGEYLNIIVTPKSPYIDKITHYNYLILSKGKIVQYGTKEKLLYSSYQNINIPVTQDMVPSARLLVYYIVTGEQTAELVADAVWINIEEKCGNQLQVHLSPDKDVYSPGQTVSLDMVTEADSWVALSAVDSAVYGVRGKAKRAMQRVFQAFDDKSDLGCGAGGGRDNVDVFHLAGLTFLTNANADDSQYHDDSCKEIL
complement C5 in cynomolgus serum (Macaca fascicularis), one chain, as listed by the source, chain 1 of 2: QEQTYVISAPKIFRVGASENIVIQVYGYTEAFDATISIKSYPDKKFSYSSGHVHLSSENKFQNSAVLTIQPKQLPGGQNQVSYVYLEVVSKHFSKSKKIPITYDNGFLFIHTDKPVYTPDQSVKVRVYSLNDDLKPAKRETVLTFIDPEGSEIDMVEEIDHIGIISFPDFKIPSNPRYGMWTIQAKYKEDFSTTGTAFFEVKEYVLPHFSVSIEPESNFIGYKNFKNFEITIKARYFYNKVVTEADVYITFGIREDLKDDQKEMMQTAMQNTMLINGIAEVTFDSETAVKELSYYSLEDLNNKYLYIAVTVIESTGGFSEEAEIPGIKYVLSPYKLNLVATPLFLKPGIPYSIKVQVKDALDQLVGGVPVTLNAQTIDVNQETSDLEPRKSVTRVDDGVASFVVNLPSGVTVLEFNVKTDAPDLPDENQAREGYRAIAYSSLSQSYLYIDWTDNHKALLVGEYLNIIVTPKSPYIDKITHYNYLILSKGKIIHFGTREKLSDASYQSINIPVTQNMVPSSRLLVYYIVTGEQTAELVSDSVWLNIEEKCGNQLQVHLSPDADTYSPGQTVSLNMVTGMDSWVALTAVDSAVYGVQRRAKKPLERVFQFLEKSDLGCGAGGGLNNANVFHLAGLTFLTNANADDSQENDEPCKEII
complement C5 in cynomolgus serum (Macaca fascicularis), one chain, as listed by the source, chain 2 of 2: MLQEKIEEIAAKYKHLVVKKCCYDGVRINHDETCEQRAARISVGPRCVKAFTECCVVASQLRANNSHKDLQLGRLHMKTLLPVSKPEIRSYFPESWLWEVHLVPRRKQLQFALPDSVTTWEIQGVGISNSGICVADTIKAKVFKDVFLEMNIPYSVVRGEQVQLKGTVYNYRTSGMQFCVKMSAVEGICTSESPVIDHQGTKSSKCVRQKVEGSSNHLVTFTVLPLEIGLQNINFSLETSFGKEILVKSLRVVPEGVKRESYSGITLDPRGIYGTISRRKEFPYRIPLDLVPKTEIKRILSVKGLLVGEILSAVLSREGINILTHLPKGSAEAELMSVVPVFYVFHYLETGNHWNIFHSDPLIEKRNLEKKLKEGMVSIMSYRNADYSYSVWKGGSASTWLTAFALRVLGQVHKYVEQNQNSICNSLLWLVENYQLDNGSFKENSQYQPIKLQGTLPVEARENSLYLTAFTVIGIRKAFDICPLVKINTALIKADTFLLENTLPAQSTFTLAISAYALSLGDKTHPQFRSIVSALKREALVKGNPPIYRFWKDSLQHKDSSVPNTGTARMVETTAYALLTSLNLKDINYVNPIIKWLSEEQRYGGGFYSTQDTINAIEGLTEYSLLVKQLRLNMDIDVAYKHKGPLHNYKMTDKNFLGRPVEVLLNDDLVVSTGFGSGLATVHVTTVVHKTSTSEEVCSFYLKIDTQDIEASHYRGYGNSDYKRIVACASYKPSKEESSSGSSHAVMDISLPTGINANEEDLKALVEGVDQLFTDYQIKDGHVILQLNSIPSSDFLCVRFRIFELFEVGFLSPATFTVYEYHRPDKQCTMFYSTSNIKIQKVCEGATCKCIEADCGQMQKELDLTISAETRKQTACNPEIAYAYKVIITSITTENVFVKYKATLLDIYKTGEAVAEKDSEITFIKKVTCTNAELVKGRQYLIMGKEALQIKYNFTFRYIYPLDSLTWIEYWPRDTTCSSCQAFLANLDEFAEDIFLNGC

What was measured:
[1] = test system: complement C5 in cynomolgus serum (Macaca fascicularis); experiment: inhibition of the protein; conditions: protein in an extract, variant of ARC186
[2] = molecular target: complement C5 (full length) (Homo sapiens) (UniProt P01031); experiment: competition with a labelled probe; conditions: 37 C, purified native protein, variant of ARC186; for binding result: 2 nM C5, curve overlaps ARC186
[3] = molecular target: complement C5 in human serum/blood (Homo sapiens) (UniProt P01031); experiment: inhibition of the protein; conditions: as ARC186 plus 5' 30 kDa PEG; hemolysis, human serum; protein in an extract; variant of ARC186
[4] = test system: complement C5 in rat serum (Rattus norvegicus); experiment: inhibition of the protein; conditions: as ARC186 plus 5' branched 40 kDa PEG (2,3-bis(mPEG-20kDa)-propyl-1-carbamoyl); hemolysis, 0.3% rat serum; little to no specific inhibition; protein in an extract; variant of ARC186; dose not given here

## CGCCGCGGUCUCAGGCGCUGAGUCUGAGUUUACCUGCG [ARC187]
[1]; 2'-F C and U, 2'-OMe purines except three 2'-OH, 3' inverted dT, 5' branched 40 kDa PEG (1,3-bis(mPEG-20kDa)-propyl-2-(4'-butamide)), zymosan activation of dosed cynomolgus plasma, about 15 uM (30-fold excess) needed
  functional effect of the aptamer: active

## CGCCGCGGUCUCAGGCGCUGAGUCUGAGUUUACCUGCG [ARC657]
[2]; as ARC186 plus 5' 20 kDa PEG
  binding result: binds
[1]; as ARC186 plus 5' 20 kDa PEG, zymosan activation of dosed cynomolgus plasma, about 15 uM needed
  functional effect of the aptamer: active

## CGCCGCGGUCUCAGGCGCUGAGUCUGAGUUUACCUGCG [ARC658]
[2]; as ARC186 plus 5' 30 kDa PEG
  binding result: binds
[3]
  IC50: 0.21 nM
[1]; as ARC186 plus 5' 30 kDa PEG, hemolysis, cynomolgus serum
  IC50: 1.7 nM

## CGCCGCGGUCUCAGGCGCUGAGUCUGAGUUUACCUGCG [ARC672]
[2]; as ARC186 plus 5' amine (C6), PBS, 1 mM MgCl2, BSA, tRNA, competition with 32P-ARC186
  Kd: 0.46 nM

## CGCCGCGGUCUCAGGCGCUGAGUCUGAGUUUACCUGCG [ARC1905]
[4]
  functional effect of the aptamer: not active
[1]; as ARC186 plus 5' branched 40 kDa PEG (2,3-bis(mPEG-20kDa)-propyl-1-carbamoyl), hemolysis, 0.1% serum, about 10-fold less potent than human, dose not given here
  functional effect of the aptamer: less active
